From the supplement of paper PMC8728848
Some of the results follow.

Experiments:
Assay in all cases: glycan array binding signal (z-score within array); higher = stronger binding
Settings in all cases: glycan notation: IUPAC condensed, linker removed
[1] = molecular target: GalNAc(b1-4)GlcNAc(b1-2)Man(a1-3)[GalNAc(b1-4)GlcNAc(b1-2)Man(a1-6)]Man(b1-4)GlcNAc(b1-4)GlcNAc
Procedure, shortened: (§1)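 The Consortium for Functional Glycomics database supplied 3228 glycan arrays, of which those lacking an available protein sequence were dropped. The binding signal, a within-array Z-score, was averaged across arrays of the same protein sequence and across linkers. Negative scores can be read as non-binding.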

[2] = molecular target: GalNAc(b1-4)GlcNAc(b1-3)GalNAc(b1-4)GlcNAc
Procedure, shortened: as §1

GalNAc(b1-4)GlcNAc6S = molecular target: GalNAc(b1-4)GlcNAc6S
Procedure, shortened: as §1

GalNAc(b1-6)GalNAc = molecular target: GalNAc(b1-6)GalNAc
Procedure, shortened: as §1

GalNAc3S(b1-4)GlcNAc = molecular target: GalNAc3S(b1-4)GlcNAc
Procedure, shortened: as §1

GalNAc3S(b1-4)GlcNAc3S = molecular target: GalNAc3S(b1-4)GlcNAc3S
Procedure, shortened: as §1

[3] = molecular target: GalNAc3S(b1-4)[Fuc(a1-3)]GlcNAc
Procedure, shortened: as §1

GalNAc4S6S(b1-4)GlcNAc = molecular target: GalNAc4S6S(b1-4)GlcNAc
Procedure, shortened: as §1

GalNAc6S(b1-4)GlcNAc = molecular target: GalNAc6S(b1-4)GlcNAc
Procedure, shortened: as §1

Glc(a1-4)Glc = molecular target: Glc(a1-4)Glc
Procedure, shortened: as §1

[4] = molecular target: Glc(a1-4)Glc(a1-4)Glc(a1-4)Glc
Procedure, shortened: as §1

Glc(a1-6)Glc(a1-6)Glc = molecular target: Glc(a1-6)Glc(a1-6)Glc
Procedure, shortened: as §1

[5] = molecular target: Glc(a1-6)Glc(a1-6)Glc(a1-6)Glc
Procedure, shortened: as §1

Glc(b1-4)Glc = molecular target: Glc(b1-4)Glc
Procedure, shortened: as §1

Glc(b1-6)Glc = molecular target: Glc(b1-6)Glc
Procedure, shortened: as §1

GlcA(b1-3)Gal = molecular target: GlcA(b1-3)Gal
Procedure, shortened: as §1

GlcA(b1-3)GlcNAc = molecular target: GlcA(b1-3)GlcNAc
Procedure, shortened: as §1

GlcA(b1-6)Gal = molecular target: GlcA(b1-6)Gal
Procedure, shortened: as §1

[6] = molecular target: GlcA3S(b1-3)Gal(b1-4)GlcNAc(b1-2)Man
Procedure, shortened: as §1

[7] = molecular target: GlcA3S(b1-3)Gal(b1-4)GlcNAc(b1-3)Gal(b1-4)Glc
Procedure, shortened: as §1

[8] = molecular target: GlcNAc(a1-3)Gal(b1-4)GlcNAc
Procedure, shortened: as §1

[9] = molecular target: GlcNAc(a1-4)Gal(b1-3)GlcNAc
Procedure, shortened: as §1

[10] = molecular target: GlcNAc(a1-4)Gal(b1-4)GalNAc
Procedure, shortened: as §1

[11] = molecular target: GlcNAc(a1-4)Gal(b1-4)GlcNAc
Procedure, shortened: as §1

[12] = molecular target: GlcNAc(a1-4)Gal(b1-4)GlcNAc(b1-3)Gal(b1-4)Glc
Procedure, shortened: as §1

[13] = molecular target: GlcNAc(a1-4)Gal(b1-4)GlcNAc(b1-3)Gal(b1-4)GlcNAc
Procedure, shortened: as §1

[14] = molecular target: GlcNAc(a1-4)Gal(b1-4)GlcNAc(b1-3)Gal(b1-4)GlcNAc(b1-3)Gal(b1-4)GlcNAc
Procedure, shortened: as §1

[15] = molecular target: GlcNAc(a1-4)Gal(b1-4)GlcNAc(b1-3)Gal(b1-4)[Fuc(a1-3)]GlcNAc(b1-3)Gal(b1-4)[Fuc(a1-3)]GlcNAc
Procedure, shortened: as §1

[16] = molecular target: GlcNAc(a1-6)Gal(b1-4)GlcNAc
Procedure, shortened: as §1

[17] = molecular target: GlcNAc(b1-2)Gal(b1-3)GalNAc
Procedure, shortened: as §1

[18] = molecular target: GlcNAc(b1-2)Man(a1-3)[GlcNAc(b1-2)Man(a1-6)]Man(b1-4)GlcNAc(b1-4)GlcNAc
Procedure, shortened: as §1

[19] = molecular target: GlcNAc(b1-2)Man(a1-3)[GlcNAc(b1-2)Man(a1-6)]Man(b1-4)GlcNAc(b1-4)[Fuc(a1-6)]GlcNAc
Procedure, shortened: as §1

[20] = molecular target: GlcNAc(b1-2)Man(a1-3)[GlcNAc(b1-4)][GlcNAc(b1-2)Man(a1-6)]Man(b1-4)GlcNAc(b1-4)GlcNAc
Procedure, shortened: as §1

[21] = molecular target: GlcNAc(b1-2)Man(a1-3)[GlcNAc(b1-4)][GlcNAc(b1-2)Man(a1-6)]Man(b1-4)GlcNAc(b1-4)[Fuc(a1-6)]GlcNAc
Procedure, shortened: as §1

[22] = molecular target: GlcNAc(b1-2)[GlcNAc(b1-4)]Man(a1-3)[GlcNAc(b1-2)Man(a1-6)]Man(b1-4)GlcNAc(b1-4)GlcNAc
Procedure, shortened: as §1

[23] = molecular target: GlcNAc(b1-2)[GlcNAc(b1-4)]Man(a1-3)[GlcNAc(b1-4)][GlcNAc(b1-2)Man(a1-6)]Man(b1-4)GlcNAc(b1-4)GlcNAc
Procedure, shortened: as §1

[24] = molecular target: GlcNAc(b1-2)[GlcNAc(b1-4)]Man(a1-3)[GlcNAc(b1-4)][GlcNAc(b1-2)[GlcNAc(b1-6)]Man(a1-6)]Man(b1-4)GlcNAc(b1-4)GlcNAc
Procedure, shortened: as §1

B1: FliC (Clostridium difficile) (protein)
chain: MRVNTNVSALIANNQMGRNVNGQSKSMEKLSSGVRIKRAADDAAGLAISEKMRAQIKGLDQAGRNVQDGISVVQTAEGSLEETGNILQRMRTLSLQSANEINNTEEREKIADELTQLKDEIERISSSTEFNGKKLLDGTSSTIRLQVGASYGTNVSGTSNNNNEIKIQLVNTASIMASAGITTASIGSMKAGGTTGTDAAKTMVSSLDAALKSLNSSRAKLGAQQNRLESTQNNLNNTLENVTAAESRIRDTDVASEMVNLSKMNILVQASQSMLAQANQQPQGVLQLLG
glycan array binding signal (z-score) [1]: -0.514 | glycan array binding signal (z-score) [2]: -0.579 | glycan array binding signal (z-score) (GalNAc(b1-4)GlcNAc6S): -0.365 | glycan array binding signal (z-score) (GalNAc(b1-6)GalNAc): -0.938 | glycan array binding signal (z-score) (GalNAc3S(b1-4)GlcNAc): -0.792 | glycan array binding signal (z-score) (GalNAc3S(b1-4)GlcNAc3S): -0.169 | glycan array binding signal (z-score) [3]: -0.621 | glycan array binding signal (z-score) (GalNAc4S6S(b1-4)GlcNAc): 0.536 | glycan array binding signal (z-score) (GalNAc6S(b1-4)GlcNAc): 0.047 | glycan array binding signal (z-score) (Glc(a1-4)Glc): 0.093 | glycan array binding signal (z-score) [4]: -1.09 | glycan array binding signal (z-score) (Glc(a1-6)Glc(a1-6)Glc): 0.058 | glycan array binding signal (z-score) [5]: 0.155 | glycan array binding signal (z-score) (Glc(b1-4)Glc): 0.15 | glycan array binding signal (z-score) (Glc(b1-6)Glc): 1.72 | glycan array binding signal (z-score) (GlcA(b1-3)Gal): 0.217 | glycan array binding signal (z-score) (GlcA(b1-3)GlcNAc): -0.37 | glycan array binding signal (z-score) (GlcA(b1-6)Gal): 0.713 | glycan array binding signal (z-score) [6]: -0.662 | glycan array binding signal (z-score) [7]: -0.763 | glycan array binding signal (z-score) [8]: 0.625 | glycan array binding signal (z-score) [9]: 0.947 | glycan array binding signal (z-score) [10]: -0.008 | glycan array binding signal (z-score) [11]: 0.327 | glycan array binding signal (z-score) [12]: -0.393 | glycan array binding signal (z-score) [13]: -0.542 | glycan array binding signal (z-score) [14]: -0.392 | glycan array binding signal (z-score) [15]: 0.855 | glycan array binding signal (z-score) [16]: -0.495 | glycan array binding signal (z-score) [17]: -0.219 | glycan array binding signal (z-score) [18]: 0.05 | glycan array binding signal (z-score) [19]: 0.458 | glycan array binding signal (z-score) [20]: -0.661 | glycan array binding signal (z-score) [21]: -0.206 | glycan array binding signal (z-score) [22]: -0.255 | glycan array binding signal (z-score) [23]: 0.172 | glycan array binding signal (z-score) [24]: -0.615
